Experimental data: paper PMC2654920, “Borrelia recurrentis Employs a Novel Multifunctional Surface Protein with Anti-Complement, Anti-Opsonic and Invasive Potential to Escape Innate Immunity” (PLoS ONE, 2009)

The chains behind the UniProt entries cited, without tags or fusion partners. Residues count along the entry.
UniProt P08603, residues 19-1231: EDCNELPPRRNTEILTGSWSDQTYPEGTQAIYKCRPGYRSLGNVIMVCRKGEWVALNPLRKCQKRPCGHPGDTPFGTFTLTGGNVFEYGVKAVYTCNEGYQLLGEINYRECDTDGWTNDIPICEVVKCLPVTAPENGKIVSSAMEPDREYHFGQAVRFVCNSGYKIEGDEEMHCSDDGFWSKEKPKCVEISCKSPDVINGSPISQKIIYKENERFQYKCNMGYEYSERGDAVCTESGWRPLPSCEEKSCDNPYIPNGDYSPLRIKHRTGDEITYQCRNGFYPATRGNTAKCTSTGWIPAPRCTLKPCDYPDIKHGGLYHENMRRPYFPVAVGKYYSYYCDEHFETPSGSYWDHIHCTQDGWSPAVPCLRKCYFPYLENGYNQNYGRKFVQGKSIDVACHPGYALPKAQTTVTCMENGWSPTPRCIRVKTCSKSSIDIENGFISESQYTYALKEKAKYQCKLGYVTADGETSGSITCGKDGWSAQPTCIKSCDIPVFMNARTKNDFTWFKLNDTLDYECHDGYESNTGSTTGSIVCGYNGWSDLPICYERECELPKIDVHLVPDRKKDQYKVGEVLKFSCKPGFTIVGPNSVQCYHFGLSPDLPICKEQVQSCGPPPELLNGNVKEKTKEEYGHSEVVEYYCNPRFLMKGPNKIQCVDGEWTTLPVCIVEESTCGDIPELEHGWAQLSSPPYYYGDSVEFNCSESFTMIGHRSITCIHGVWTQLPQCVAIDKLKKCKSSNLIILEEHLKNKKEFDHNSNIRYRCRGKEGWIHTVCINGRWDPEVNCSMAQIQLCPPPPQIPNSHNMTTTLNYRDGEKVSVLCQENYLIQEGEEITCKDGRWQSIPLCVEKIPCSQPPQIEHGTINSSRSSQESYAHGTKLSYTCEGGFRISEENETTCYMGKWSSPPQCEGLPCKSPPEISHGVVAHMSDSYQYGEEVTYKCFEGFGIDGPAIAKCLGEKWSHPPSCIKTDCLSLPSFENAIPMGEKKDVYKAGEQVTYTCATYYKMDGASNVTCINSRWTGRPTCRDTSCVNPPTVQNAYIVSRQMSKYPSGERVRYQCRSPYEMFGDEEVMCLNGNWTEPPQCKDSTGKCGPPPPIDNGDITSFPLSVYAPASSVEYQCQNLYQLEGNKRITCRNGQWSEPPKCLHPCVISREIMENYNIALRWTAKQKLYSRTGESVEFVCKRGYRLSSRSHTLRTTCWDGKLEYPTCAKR

What was measured:
[1] = biological target: T1, recombinant full-length HcpA (residues 18 to 175) of B. recurrentis A1 (B. recurrentis A1) (UniProt C1L349); assay: far-Western, overlay or dot blot; ligand affinity blot: purified recombinant HcpA separated by SDS-PAGE, on nitrocellulose strips, incubated with recombinant CFHL-1, CFH deletion constructs or recombinant CFHR-1; anti-CFH immune serum, mAb JHD7 or JHD8; both purified
T1 sequence: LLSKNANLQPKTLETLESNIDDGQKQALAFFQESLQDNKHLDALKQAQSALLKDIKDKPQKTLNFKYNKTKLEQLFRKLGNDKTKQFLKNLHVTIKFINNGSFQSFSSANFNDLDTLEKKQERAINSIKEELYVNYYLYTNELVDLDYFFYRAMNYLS

[2] = biological target: T1, recombinant full-length HcpA (residues 18 to 175) of B. recurrentis A1 (B. recurrentis A1); assay: SPR; Biacore 3000; recombinant HcpA immobilized on the sensor chip, CFH or deletion mutants in the fluid phase; both purified
[3] = biological target: HcpA expressed in transformed B. burgdorferi B313/pBR (B. recurrentis A1) (UniProt C1L349); assay: far-Western, overlay or dot blot; ligand affinity blot: borrelial whole cell lysates (15 µg) separated by Tris/Tricine SDS-PAGE under reducing conditions, on nitrocellulose, incubated with normal human serum; CFH detected with mAb JHD7, CFHR-1 with mAb JHD8
[4] = biological target: T1, recombinant full-length HcpA (residues 18 to 175) of B. recurrentis A1 (B. recurrentis A1); assay: ELISA; microtiter plates coated with non-denatured HcpA or deletion mutants (1 µg/ml), incubated with CFH (10 µg/ml) or PLG (20 µg/ml) for 1 h at RT; goat anti-CFH or goat anti-PLG; both purified
[5] = biological target: T1, recombinant full-length HcpA (residues 18 to 175) of B. recurrentis A1 (B. recurrentis A1); assay: ELISA; competition inhibition assay: HcpA (2 µg/ml) coated; constant CFH (3 µg/ml in the methods, 2 µg/ml in the results) with PLG 0.001-100 µg/ml, or constant PLG (10 µg/ml) with CFH 0.001-100 µg/ml; both purified

Substance | binding [1] | binding [2] | further results
CFH deletion construct SCR8-20 (human) (domain or fragment) | binds | binds | 
CFH deletion construct SCR15-19 (human) (domain or fragment) |  | no binding | 
CFH deletion construct SCR15-20 (human) (domain or fragment) | binds | binds | 
CFH deletion mutant SCR19-20 (human) (domain or fragment) | binds | binds | 
human complement factor H (from UniProt P08603 19-1231) |  |  | binding [3]: binds
human plasminogen |  |  | binding [4]: binds; binding [5]: binds
recombinant CFHL-1 (CFH SCR1-7) (human) (domain or fragment) | no binding |  | 

No constants are given. Whether binding was seen depends on the method and setting. Binding can be weak; no strength is given.
